Measurements from “University of Dundee, Small-Polar-MMV Screening Library” (2021), ChEMBL document CHEMBL3988442.

T. brucei: 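Whole-parasite assay of Trypanosoma brucei over 72 hours; the read-out is not stated. Compounds at 30 µM. Higher reads as stronger inhibition (inferred: compounds with an IC50 in retests scored well above the rest). Values scatter widely below zero; nearly all retest evidence comes from the higher of the two concentrations used. Size under these conditions: about 64,000 compounds, about 940 of them at 50% or above in at least one test.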
Toxoplasma: 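Assay of Toxoplasma gondii numbers, read through their beta-galactosidase reporter with a colour substrate. Tested at 10 µM. The record gives no direction; the compounds picked for IC50 retests had high values, so higher reads as fewer parasites. About 67,000 compounds were tested under these conditions; 0.38% (about 260) showed 50% or more at least once.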

Results are given as percent effect.
The controls that fix the scale are not given in the record; negative values are as filed.
The compounds are a random part of those screened.

For CCn1nc(CC(C)C)cc1C(=O)N1CC[C@@H](O)C1 the result was T. brucei: 20.62%; Toxoplasma: -1.322%. For O=C(CCCc1ccccn1)N1CCOc2ccc(F)cc21 the result was T. brucei: -13.89%; Toxoplasma: -1.282%. Result for Cc1nc(C)n(C2CCCN(C(=O)CCCNc3ncccn3)C2)n1 (configuration not stated) was T. brucei: 1.179%; Toxoplasma: -18.89%. CCc1nnc(CN2CCCC(c3cc(C(F)(F)F)[nH]n3)C2)o1 (configuration not stated) read T. brucei: -16.3%; Toxoplasma: -8.053%.

O=C(CCc1ccsc1)NCc1ccnc(OC2CCOCC2)c1 read T. brucei: -7.609%; Toxoplasma: 1.658%. For COc1ccccc1OCCCc1cccc(C#N)n1 the result was T. brucei: -44.45%; Toxoplasma: 14.89%. With Cc1cc(F)ccc1N1CCC(N2C[C@@H](C)[C@@](C)(O)C2)CC1 the screen gave T. brucei: -20.42%; Toxoplasma: 24.01%. Result for CCOC(=O)N1[C@@H](c2ccco2)[C@@H](C(=O)O)C[C@]12CCCCNC2=O was T. brucei: -35.05%; Toxoplasma: -16.65%.

Result for COc1cc(F)ccc1N1CCN(Cc2nnc(C3CC3)o2)CC1 was T. brucei: -22.42%; Toxoplasma: 2.169%. Cc1ccc2[nH]c(CN(C)Cc3ccccc3C(=O)O)nc2c1 gave T. brucei: -54.63%; Toxoplasma: -32.86%. With O=C(c1cnccn1)N1CCC2(CCCN(Cc3ccoc3)C2)C1 (configuration not stated) the screen gave T. brucei: -109.4%; Toxoplasma: -8.056%. For CCN(c1ccc(C(=O)N2CCCCCC2)cc1)S(=O)(=O)CC the result was T. brucei: -2.184%; Toxoplasma: 12.38%.

For CCCn1cc(Cl)c(C(=O)N2C[C@@H](O)[C@H](NC(C)=O)C2)n1 the result was T. brucei: 9.618%; Toxoplasma: 8.244%. COc1ccc(N2CCN(C(=O)c3cc(=O)c(OC)c[nH]3)CC2)cc1 read T. brucei: 1.811%; Toxoplasma: 3.474%. For CC[C@@H](c1ccccc1)n1c(CCN)n[nH]c1=O the result was T. brucei: -2.141%; Toxoplasma: 5.767%. Result for CC(C)CN1CCC(C(=O)NCCNC(=O)c2ccccc2)CC1 was T. brucei: -25.63%; Toxoplasma: -4.756%.

Result for Cc1nccn1-c1cccc(C2CCCN2S(=O)(=O)N(C)C)n1 (configuration not stated) was T. brucei: 6.4%; Toxoplasma: -10.29%. For CC1(C(=O)N2CCN(c3ncccn3)CC2)CNCCO1 (configuration not stated) the result was T. brucei: -7.368%; Toxoplasma: 2.672%. For OCC1(O)CCN(c2ccnc3c(C(F)(F)F)cccc23)CC1 the result was T. brucei: -10.16%; Toxoplasma: 11.48%. O=C(C1CCC1)N1CCC(C2CCN(Cc3ccc(Cl)cc3)C2)CC1 (configuration not stated) read T. brucei: -7.448%; Toxoplasma: 11.08%.

COCC(O)CN1CCC(=O)N(CC=C(C)C)Cc2ccccc21 (configuration not stated) read T. brucei: -29.5%; Toxoplasma: -3.402%. Result for [H][C@@]12CCN(C(=O)c3cccs3)CC[C@@]1([H])N(S(C)(=O)=O)CCO2 was T. brucei: -50.53%; Toxoplasma: 7.287%. COc1ccc(OC)c(CN(C)c2ncc(S(N)(=O)=O)s2)c1 read T. brucei: 10.9%; Toxoplasma: -0.8021%. COc1ccc(C(NCc2ccc(C#N)cc2)C2CC2)cc1.Cl (configuration not stated) gave T. brucei: 8.897%; Toxoplasma: -5.461%.

For Cc1nn(C)c2cn(C(C)C(=O)NCc3ccc(F)cc3)nc12 (configuration not stated) the result was T. brucei: -6.728%; Toxoplasma: 1.414%.

Some entries from above, unchanged:

structure	T. brucei	Toxoplasma
Cc1cc(F)ccc1N1CCC(N2C[C@@H](C)[C@@](C)(O)C2)CC1	-20.42	24.01
CC1(C(=O)N2CCN(c3ncccn3)CC2)CNCCO1 (configuration not stated)	-7.368	2.672